Measured values as given in US20230076670A1.
Results are given in words; binding and its absence hold for the method and conditions named. Some entries that bind do so weakly or less than the wild type. Tags and fused reporters may be left off the sequences shown.

T1: porcine aminopeptidase N (pAPN), full-length, expressed on the membrane of APN-transfected BHK21 and IPEC-J2 cells (Sus scrofa (pig)) (UniProt P15145)
T1 sequence (looked up): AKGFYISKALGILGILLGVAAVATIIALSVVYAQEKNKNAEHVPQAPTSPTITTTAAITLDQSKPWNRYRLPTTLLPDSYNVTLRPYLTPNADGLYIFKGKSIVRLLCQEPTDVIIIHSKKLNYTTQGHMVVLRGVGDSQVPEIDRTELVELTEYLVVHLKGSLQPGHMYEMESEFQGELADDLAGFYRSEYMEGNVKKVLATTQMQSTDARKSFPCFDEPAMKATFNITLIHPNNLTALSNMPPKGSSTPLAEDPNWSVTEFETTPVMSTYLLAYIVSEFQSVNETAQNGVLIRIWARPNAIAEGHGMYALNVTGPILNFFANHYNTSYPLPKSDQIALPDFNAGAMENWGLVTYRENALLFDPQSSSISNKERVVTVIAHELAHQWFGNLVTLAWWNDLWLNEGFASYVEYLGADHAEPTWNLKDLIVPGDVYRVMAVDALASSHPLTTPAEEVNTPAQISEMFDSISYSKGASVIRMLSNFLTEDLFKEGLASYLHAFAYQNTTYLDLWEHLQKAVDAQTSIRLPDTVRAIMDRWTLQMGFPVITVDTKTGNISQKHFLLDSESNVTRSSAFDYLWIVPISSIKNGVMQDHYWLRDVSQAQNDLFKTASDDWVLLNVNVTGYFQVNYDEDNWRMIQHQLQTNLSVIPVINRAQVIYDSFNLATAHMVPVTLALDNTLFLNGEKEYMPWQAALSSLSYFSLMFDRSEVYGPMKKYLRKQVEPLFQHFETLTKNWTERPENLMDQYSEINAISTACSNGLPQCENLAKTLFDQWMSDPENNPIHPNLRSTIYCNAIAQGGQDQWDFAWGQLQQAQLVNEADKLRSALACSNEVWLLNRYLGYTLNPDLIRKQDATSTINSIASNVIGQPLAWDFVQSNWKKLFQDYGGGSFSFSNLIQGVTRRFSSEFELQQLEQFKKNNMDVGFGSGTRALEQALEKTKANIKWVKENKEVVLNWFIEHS

T2: APN isolated from porcine kidney (Sigma, cat. No. L6007-50UN), coated on ELISA plates (pig) (UniProt P15145)
T2 sequence (looked up): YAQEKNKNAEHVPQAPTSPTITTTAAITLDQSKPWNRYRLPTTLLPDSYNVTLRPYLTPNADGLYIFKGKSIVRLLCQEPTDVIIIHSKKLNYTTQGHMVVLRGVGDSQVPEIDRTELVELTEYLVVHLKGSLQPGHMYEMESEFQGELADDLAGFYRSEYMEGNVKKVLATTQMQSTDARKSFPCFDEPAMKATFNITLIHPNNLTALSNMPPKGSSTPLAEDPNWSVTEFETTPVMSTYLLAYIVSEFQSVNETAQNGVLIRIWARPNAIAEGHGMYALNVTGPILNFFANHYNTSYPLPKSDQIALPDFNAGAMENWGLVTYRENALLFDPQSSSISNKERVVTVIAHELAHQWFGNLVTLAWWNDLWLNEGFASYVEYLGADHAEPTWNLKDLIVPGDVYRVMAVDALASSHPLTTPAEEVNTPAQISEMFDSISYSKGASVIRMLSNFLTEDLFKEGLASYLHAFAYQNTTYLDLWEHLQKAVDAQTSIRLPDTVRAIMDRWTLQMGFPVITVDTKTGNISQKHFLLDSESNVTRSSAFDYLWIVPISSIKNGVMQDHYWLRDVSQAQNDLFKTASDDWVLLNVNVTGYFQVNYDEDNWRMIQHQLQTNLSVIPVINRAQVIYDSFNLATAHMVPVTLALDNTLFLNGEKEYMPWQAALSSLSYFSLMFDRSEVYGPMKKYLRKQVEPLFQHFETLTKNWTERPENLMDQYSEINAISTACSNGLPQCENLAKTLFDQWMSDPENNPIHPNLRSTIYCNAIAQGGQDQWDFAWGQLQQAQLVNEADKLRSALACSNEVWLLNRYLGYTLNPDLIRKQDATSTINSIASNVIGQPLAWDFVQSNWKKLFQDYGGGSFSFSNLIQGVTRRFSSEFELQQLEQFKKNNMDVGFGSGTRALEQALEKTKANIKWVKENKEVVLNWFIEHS


Legend:
[1] = target: T1, porcine aminopeptidase N (pAPN), full-length, expressed on the membrane of APN-transfected BHK21 and IPEC-J2 cells (Sus scrofa (pig)); assay: flow cytometry on APN-expressing cells, purified VHH-MG
[2] = target: T2, APN isolated from porcine kidney (Sigma, cat. No. L6007-50UN), coated on ELISA plates (pig); assay: ELISA on coated kidney APN, culture supernatant, three-fold dilution series
[3] = target: T1, porcine aminopeptidase N (pAPN), full-length, expressed on the membrane of APN-transfected BHK21 and IPEC-J2 cells (Sus scrofa (pig)); assay: endocytosis assay on APN-expressing BHK21 cells, confocal imaging
[4] = target: T1, porcine aminopeptidase N (pAPN), full-length, expressed on the membrane of APN-transfected BHK21 and IPEC-J2 cells (Sus scrofa (pig)); assay: gut ligated loop assay in piglet jejunum, immunohistochemistry
[5] = target: T1, porcine aminopeptidase N (pAPN), full-length, expressed on the membrane of APN-transfected BHK21 and IPEC-J2 cells (Sus scrofa (pig)); assay: immunohistochemistry on porcine ileum cryosections
[6] = target: T1, porcine aminopeptidase N (pAPN), full-length, expressed on the membrane of APN-transfected BHK21 and IPEC-J2 cells (Sus scrofa (pig)); assay: flow cytometry of crude periplasmic extracts on pAPN-expressing BHK21 cells

binding [1] | binding [2] | binding [3] | binding [4] | binding [5] | binding [6] | Binder
binds | binds | binds | binds | binds | – | 3L94-MG (3L94 VHH fused to the Fc domain of mouse IgG2a) (Fc fusion, Disulfide-linked homodimer of this chain.) QVQLQESGGGLVQPGDSLRLSCAASGRTFSTYAMGWFRQAPGKEREFVAYISQLSLSTKYADSVKGRFTVSRDDAQNTLYLQMNSLRPEDTAVYYCATRSQNYVTTYDQSRAYDYWGQGTQVTVSSEPRGPTIKPCPPCKCPAPNLLGGPSVFIFPPKIKDVLMISLSPIVTCVVVDVSEDDPDVQISWFVNNVEVHTAQTQTHREDYNSTLRVVSALPIQHQDWMSGKEFKCKVNNKDLPAPIERTISKPKGSVRAPQVYVLPPPEEEMTKKQVTLTCMVTDFMPEDIYVEWTNNGKTELNYKNTEPVLDSDGSYFMYSKLRVEKKNWVERNSYSCSVVHEGLHNHHTTKSFSRTPGK
– | – | – | – | – | binds | 3L94 VHH (crude periplasmic extract, pMECS, HA and His6 tag) (VHH) VHH: QVQLQESGGGLVQPGDSLRLSCAASGRTFSTYAMGWFRQAPGKEREFVAYISQLSLSTKYADSVKGRFTVSRDDAQNTLYLQMNSLRPEDTAVYYCATRSQNYVTTYDQSRAYDYWGQGTQVTVSS
